No constants are given. Whether binding was seen depends on the method and setting. In cells and extracts the contact can be indirect. A result given as binding can be weak or reduced; the word gives no strength. Tags and fused reporters may be left off the sequences shown.
Target: T1, Miz-1/GFP (Myc-interacting zinc finger protein 1) (UniProt Q13105)
T1 sequence: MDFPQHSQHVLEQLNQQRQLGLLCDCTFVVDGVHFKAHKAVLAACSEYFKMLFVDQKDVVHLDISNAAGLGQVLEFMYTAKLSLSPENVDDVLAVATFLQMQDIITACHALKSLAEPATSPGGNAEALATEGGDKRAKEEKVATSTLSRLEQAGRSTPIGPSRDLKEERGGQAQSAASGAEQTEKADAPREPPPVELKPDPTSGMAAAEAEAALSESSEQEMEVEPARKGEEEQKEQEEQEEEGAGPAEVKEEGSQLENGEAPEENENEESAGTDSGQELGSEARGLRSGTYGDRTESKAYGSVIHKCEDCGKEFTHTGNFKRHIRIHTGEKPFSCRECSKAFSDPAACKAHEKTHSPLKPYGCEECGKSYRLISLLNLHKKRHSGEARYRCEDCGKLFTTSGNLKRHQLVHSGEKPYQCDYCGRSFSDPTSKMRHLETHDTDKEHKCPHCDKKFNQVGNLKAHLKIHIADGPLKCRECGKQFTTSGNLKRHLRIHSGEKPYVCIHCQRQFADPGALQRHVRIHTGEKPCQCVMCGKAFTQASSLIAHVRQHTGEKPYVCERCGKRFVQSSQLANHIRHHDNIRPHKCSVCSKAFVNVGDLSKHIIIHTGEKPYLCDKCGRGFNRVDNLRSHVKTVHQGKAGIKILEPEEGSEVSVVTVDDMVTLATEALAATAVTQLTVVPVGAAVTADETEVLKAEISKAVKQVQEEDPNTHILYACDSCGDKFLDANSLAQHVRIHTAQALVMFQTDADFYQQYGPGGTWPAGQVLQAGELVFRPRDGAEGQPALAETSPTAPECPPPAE
Experiment: co-IP; Cos-1 cells co-transfected with Miz-1/GFP and Arnt/Flag variants; whole cell extract (25 mM Hepes, 100 mM NaCl, 5 mM EDTA, 0.5% Triton, 20% glycerol); IP with anti-GFP on Protein G agarose overnight at 4°C, immunoblot with anti-Flag

## Arnt/Flag lacking the PAS domain (from UniProt P27540-2)
  binding: binds

Reference: publication PMC3984710
